Test [1] has as its target FLAG-tagged full-length OVOL1 (human) (UniProt O14753). Nature of the test: co-IP; HEK293T cells transfected with both partners; TNE lysis buffer (50 mM Tris-HCl pH 7.4, 1 mM EDTA, 150 mM NaCl, 1% NP40); anti-FLAG agarose beads, 30 min, 4 °C; western blotting.
Test [2] concerns the target FLAG-tagged full-length SMAD family member 7 (SMAD7) (UniProt O15105). Described as above.
Test [3] deals with SMAD7 (construct not shown; Supplementary Fig. 7d and 8a) (UniProt O15105). Nature of the test: co-IP; SMAD7 with E3 ligases or DUBs, without or with ectopic expression of OVOL1 (Supplementary Fig. 8a); cells, tags and who was precipitated not shown.
Test [4] has as its target SMAD3 (UniProt P84022). Nature of the test: co-IP; OVOL2 with SMADs (Supplementary Fig. 7d); cells, tags and who was precipitated not shown.
In test [5] the target is SMAD7 (construct not shown; Supplementary Fig. 7d and 8a) (UniProt O15105). Described as above.
In test [6] the target is SMAD2 (UniProt Q15796). The description is as above.
Test [7] has as its target SMAD4 (UniProt Q13485). Described as above.
The target in test [8] is SMAD7 (endogenous) (human (endogenous in MCF10A-M2)) (UniProt O15105). Nature of the test: co-IP; endogenous proteins, MCF10A-M2 lysate in TNE buffer; antibody against SMAD7 overnight at 4 °C, then Protein G agarose 2 h; IgG isotype as control.

By UniProt entry, the sequences of proteins in these tests, tags left out.
UniProt O14753: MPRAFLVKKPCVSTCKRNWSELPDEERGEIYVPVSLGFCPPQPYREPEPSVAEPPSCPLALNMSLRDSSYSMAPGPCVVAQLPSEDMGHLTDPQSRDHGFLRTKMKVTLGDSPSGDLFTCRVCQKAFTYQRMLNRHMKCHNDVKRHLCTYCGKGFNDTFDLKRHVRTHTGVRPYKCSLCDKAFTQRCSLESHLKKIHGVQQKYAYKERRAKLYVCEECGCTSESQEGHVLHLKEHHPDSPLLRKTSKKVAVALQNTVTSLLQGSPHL
UniProt O15105: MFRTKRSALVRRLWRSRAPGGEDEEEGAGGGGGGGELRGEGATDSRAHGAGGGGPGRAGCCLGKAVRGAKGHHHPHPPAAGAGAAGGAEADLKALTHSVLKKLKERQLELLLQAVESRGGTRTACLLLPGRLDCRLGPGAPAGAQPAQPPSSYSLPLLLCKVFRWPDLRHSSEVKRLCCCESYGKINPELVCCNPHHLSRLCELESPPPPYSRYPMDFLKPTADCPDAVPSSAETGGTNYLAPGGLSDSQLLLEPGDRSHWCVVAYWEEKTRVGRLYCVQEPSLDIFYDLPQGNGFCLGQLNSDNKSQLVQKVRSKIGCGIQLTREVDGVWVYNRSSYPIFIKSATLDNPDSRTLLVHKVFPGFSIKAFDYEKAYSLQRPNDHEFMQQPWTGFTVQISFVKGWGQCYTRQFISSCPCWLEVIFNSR
UniProt P84022: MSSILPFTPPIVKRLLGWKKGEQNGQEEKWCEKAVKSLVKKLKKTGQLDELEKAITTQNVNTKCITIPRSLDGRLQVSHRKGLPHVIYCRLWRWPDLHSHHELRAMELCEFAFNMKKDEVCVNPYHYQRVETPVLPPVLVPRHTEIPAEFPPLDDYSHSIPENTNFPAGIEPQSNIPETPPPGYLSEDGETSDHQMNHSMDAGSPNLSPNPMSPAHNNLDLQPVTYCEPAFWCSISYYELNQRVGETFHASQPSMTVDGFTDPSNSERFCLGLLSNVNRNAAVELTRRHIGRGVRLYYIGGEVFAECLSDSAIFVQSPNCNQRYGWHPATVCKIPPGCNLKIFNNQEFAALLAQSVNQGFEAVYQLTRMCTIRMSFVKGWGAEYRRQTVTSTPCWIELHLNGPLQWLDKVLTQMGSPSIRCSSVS
UniProt Q15796: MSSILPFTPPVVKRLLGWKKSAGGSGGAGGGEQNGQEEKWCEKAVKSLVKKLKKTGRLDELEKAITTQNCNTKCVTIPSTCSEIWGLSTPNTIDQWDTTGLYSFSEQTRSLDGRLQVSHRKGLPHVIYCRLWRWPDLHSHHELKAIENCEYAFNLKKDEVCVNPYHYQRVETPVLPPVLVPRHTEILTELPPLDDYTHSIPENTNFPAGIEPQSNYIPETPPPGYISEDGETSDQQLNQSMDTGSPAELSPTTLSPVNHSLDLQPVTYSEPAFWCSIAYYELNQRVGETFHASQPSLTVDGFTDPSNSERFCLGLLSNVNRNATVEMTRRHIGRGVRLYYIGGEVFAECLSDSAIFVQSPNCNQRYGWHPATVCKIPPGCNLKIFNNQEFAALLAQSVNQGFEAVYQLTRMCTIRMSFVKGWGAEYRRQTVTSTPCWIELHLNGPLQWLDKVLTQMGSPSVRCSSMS
UniProt Q13485: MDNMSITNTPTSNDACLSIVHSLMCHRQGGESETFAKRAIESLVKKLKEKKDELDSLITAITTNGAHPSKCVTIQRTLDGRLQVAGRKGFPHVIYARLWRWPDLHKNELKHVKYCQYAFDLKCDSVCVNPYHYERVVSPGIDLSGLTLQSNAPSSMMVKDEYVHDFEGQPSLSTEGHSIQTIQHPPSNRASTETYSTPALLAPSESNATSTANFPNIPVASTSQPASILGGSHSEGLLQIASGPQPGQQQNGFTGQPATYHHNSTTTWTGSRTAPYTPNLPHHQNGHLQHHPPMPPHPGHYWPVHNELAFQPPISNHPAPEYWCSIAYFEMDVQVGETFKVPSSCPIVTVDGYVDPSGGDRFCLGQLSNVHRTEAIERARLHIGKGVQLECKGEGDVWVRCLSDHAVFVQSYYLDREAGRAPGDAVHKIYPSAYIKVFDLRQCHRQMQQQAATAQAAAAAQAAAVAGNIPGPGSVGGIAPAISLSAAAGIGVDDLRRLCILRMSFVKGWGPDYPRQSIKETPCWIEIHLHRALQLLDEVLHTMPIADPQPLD
UniProt Q9BRP0: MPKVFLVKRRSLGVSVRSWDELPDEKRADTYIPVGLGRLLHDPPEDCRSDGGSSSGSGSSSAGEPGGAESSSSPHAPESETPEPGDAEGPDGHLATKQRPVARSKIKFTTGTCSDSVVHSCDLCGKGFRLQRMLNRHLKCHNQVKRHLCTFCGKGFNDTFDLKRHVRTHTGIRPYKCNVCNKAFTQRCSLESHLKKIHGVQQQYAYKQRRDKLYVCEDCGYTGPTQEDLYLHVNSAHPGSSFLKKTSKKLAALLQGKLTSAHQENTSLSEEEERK

Results are given in words; binding and its absence hold for the method and conditions named. Binding seen in cells or lysates may run through a third protein. Some binding calls cover weakened binding; strength is not graded here.

As to HA-SMAD7 (from UniProt O15105 1-426), the binding entry in test [1] is reported as “binds”. Regarding “Ovo-like transcriptional repressor 1 (OVOL1) (from UniProt O14753 1-267)”, the binding entry in test [2] and in test [3] was “binds” in each case. As for OVOL2 (from UniProt Q9BRP0 1-275), the binding entry in test [4] is listed as “binds”; in test [5] it was “binds weakly”; in test [6], “binds”; in test [7], “binds”.

“OVOL1 (endogenous) (from UniProt O14753 1-267)”: the binding result in test [8] is listed as “binds”.

B1: USP26 (enzyme, UniProt Q9BXU7 1-913)
chain: MAALFLRGFVQIGNCKTGISKSKEAFIEAVERKKKDRLVLYFKSGKYSTFRLSDNIQNVVLKSYRGNQNHLHLTLQNNNGLFIEGLSSTDAEQLKIFLDRVHQNEVQPPVRPGKGGSVFSSTTQKEINKTSFHKVDEKSSSKSFEIAKGSGTGVLQRMPLLTSKLTLTCGELSENQHKKRKRMLSSSSEMNEEFLKENNSVEYKKSKADCSRCVSYNREKQLKLKELEENKKLECESSCIMNATGNPYLDDIGLLQALTEKMVLVFLLQQGYSDGYTKWDKLKLFFELFPEKICHGLPNLGNTCYMNAVLQSLLSIPSFADDLLNQSFPWGKIPLNALTMCLARLLFFKDTYNIEIKEMLLLNLKKAISAAAEIFHGNAQNDAHEFLAHCLDQLKDNMEKLNTIWKPKSEFGEDNFPKQVFADDPDTSGFSCPVITNFELELLHSIACKACGQVILKTELNNYLSINLPQRIKAHPSSIQSTFDLFFGAEELEYKCAKCEHKTSVGVHSFSRLPRILIVHLKRYSLNEFCALKKNDQEVIISKYLKVSSHCNEGTRPPLPLSEDGEITDFQLLKVIRKMTSGNISVSWPATKESKDILAPHIGSDKESEQKKGQTVFKGASRRQQQKYLGKNSKPNELESVYSGDRAFIEKEPLAHLMTYLEDTSLCQFHKAGGKPASSPGTPLSKVDFQTVPENPKRKKYVKTSKFVAFDRIINPTKDLYEDKNIRIPERFQKVSEQTQQCDGMRICEQAPQQALPQSFPKPGTQGHTKNLLRPTKLNLQKSNRNSLLALGSNKNPRNKDILDKIKSKAKETKRNDDKGDHTYRLISVVSHLGKTLKSGHYICDAYDFEKQIWFTYDDMRVLGIQEAQMQEDRRCTGYIFFYMHNEIFEEMLKREENAQLNSKEVEETLQKE
B1: in test [3], the binding result was “binds”.

B2: ARKADIA (enzyme, UniProt Q6ZNA4 1-994)
chain: MSQWTPEYNELYTLKVDMKSEIPSDAPKTQESLKGILLHPEPIGAAKSFPAGVEMINSKVGNEFSHLCDDSQKQEKEMNGNQQEQEKSLVVRKKRKSQQAGPSYVQNCVKENQGILGLRQHLGTPSDEDNDSSFSDCLSSPSSSLHFGDSDTVTSDEDKEVSVRHSQTILNAKSRSHSARSHKWPRTETESVSGLLMKRPCLHGSSLRRLPCRKRFVKNNSSQRTQKQKERILMQRKKREVLARRKYALLPSSSSSSENDLSSESSSSSSTEGEEDLFVSASENHQNNPAVPSGSIDEDVVVIEASSTPQVTANEEINVTSTDSEVEIVTVGESYRSRSTLGHSRSHWSQGSSSHASRPQEPRNRSRISTVIQPLRQNAAEVVDLTVDEDEPTVVPTTSARMESQATSASINNSNPSTSEQASDTASAVTSSQPSTVSETSATLTSNSTTGTSIGDDSRRTTSSAVTETGPPAMPRLPSCCPQHSPCGGSSQNHHALGHPHTSCFQQHGHHFQHHHHHHHTPHPAVPVSPSFSDPACPVERPPQVQAPCGANSSSGTSYHEQQALPVDLSNSGIRSHGSGSFHGASAFDPCCPVSSSRAAIFGHQAAAAAPSQPLSSIDGYGSSMVAQPQPQPPPQPSLSSCRHYMPPPYASLTRPLHHQASACPHSHGNPPPQTQPPPQVDYVIPHPVHAFHSQISSHATSHPVAPPPPTHLASTAAPIPQHLPPTHQPISHHIPATAPPAQRLHPHEVMQRMEVQRRRMMQHPTRAHERPPPHPHRMHPNYGHGHHIHVPQTMSSHPRQAPERSAWELGIEAGVTAATYTPGALHPHLAHYHAPPRLHHLQLGALPLMVPDMAGYPHIRYISSGLDGTSFRGPFRGNFEELIHLEERLGNVNRGASQGTIERCTYPHKYKKVTTDWFSQRKLHCKQDGEEGTEEDTEEKCTICLSILEEGEDVRRLPCMHLFHQVCVDQWLITNKKCPICRVDIEAQLPSES
Take B2: in test [3], the binding result is given as “binds”.

B3: RNF12 (enzyme, UniProt Q9NVW2 1-624)
chain: MENSDSNDKGSGDQSAAQRRSQMDRLDREEAFYQFVNNLSEEDYRLMRDNNLLGTPGESTEEELLRRLQQIKEGPPPQNSDENRGGDSSDDVSNGDSIIDWLNSVRQTGNTTRSGQRGNQSWRAVSRTNPNSGDFRFSLEINVNRNNGSQNSENENEPSARRSSGENVENNSQRQVENPRSESTSARPSRSERNSTEALTEVPPTRGQRRARSRSPDHRRTRARAERSRSPLHPMSEIPRRSHHSISSQTFEHPLVNETEGSSRTRHHVTLRQQISGPELLSRGLFAASGTRNASQGAGSSDTAASGESTGSGQRPPTIVLDLQVRRVRPGEYRQRDSIASRTRSRSQTPNNTVTYESERGGFRRTFSRSERAGVRTYVSTIRIPIRRILNTGLSETTSVAIQTMLRQIMTGFGELSYFMYSDSDSEPTGSVSNRNMERAESRSGRGGSGGGSSSGSSSSSSSSSSSSSSSSSSSSPSSSSGGESSETSSDLFEGSNEGSSSSGSSGARREGRHRAPVTFDESGSLPFLSLAQFFLLNEDDDDQPRGLTKEQIDNLAMRSFGENDALKTCSVCITEYTEGNKLRKLPCSHEYHVHCIDRWLSENSTCPICRRAVLASGNRESVV
Consider B3, for which, in test [3], the binding entry is recorded as “binds”.
